According to the supplement of paper PMC10849652:
The list shows a part of the results.

Sequences of proteins named here, by UniProt entry; tags and fusion partners are left off. A change or cut given only in a name is not applied to a line headed by its entry.
UniProt Q15257: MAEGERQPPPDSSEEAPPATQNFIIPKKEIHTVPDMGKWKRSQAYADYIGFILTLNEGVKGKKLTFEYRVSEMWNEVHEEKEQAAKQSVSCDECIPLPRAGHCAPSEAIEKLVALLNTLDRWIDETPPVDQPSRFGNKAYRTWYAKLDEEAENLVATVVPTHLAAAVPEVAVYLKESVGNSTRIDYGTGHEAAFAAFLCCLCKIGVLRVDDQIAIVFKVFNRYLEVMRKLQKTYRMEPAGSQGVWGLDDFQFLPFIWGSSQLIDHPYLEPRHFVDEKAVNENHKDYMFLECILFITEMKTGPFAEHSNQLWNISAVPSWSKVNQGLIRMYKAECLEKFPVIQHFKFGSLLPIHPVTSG
UniProt O95758: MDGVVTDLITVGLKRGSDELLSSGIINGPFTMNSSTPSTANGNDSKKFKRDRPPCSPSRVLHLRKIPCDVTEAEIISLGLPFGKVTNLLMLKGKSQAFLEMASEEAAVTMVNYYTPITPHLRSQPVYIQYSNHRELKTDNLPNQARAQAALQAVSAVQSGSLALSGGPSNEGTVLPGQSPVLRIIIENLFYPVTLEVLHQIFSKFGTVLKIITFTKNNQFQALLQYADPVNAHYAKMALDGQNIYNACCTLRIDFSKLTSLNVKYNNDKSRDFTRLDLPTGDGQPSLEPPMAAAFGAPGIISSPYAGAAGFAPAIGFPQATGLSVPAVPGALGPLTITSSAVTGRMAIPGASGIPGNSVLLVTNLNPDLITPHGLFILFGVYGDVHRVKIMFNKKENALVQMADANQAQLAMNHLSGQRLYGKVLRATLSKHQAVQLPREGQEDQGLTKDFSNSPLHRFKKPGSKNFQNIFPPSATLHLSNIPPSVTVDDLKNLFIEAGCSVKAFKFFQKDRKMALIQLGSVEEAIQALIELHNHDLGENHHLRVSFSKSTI
UniProt Q8N8N7: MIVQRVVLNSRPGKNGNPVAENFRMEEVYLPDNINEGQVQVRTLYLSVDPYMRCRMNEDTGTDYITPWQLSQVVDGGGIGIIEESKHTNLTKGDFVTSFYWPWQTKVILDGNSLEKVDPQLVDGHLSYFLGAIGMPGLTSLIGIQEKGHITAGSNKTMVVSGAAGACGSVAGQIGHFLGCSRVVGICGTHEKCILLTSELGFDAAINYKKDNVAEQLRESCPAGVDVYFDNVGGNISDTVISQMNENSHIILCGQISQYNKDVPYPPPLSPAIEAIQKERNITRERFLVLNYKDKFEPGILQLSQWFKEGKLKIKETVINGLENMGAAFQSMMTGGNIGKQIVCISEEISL
UniProt Q86TP1: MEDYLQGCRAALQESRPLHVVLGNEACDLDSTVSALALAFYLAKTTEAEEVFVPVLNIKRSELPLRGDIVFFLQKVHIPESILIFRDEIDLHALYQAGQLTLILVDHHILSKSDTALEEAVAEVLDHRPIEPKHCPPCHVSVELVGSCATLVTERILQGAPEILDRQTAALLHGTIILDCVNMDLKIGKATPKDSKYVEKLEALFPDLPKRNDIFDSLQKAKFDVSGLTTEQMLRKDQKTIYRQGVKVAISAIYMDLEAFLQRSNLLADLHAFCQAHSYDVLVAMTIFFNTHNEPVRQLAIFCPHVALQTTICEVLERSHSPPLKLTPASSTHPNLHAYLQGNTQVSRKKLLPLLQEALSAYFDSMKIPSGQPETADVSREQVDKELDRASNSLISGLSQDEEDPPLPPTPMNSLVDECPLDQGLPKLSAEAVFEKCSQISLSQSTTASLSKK
UniProt P25786: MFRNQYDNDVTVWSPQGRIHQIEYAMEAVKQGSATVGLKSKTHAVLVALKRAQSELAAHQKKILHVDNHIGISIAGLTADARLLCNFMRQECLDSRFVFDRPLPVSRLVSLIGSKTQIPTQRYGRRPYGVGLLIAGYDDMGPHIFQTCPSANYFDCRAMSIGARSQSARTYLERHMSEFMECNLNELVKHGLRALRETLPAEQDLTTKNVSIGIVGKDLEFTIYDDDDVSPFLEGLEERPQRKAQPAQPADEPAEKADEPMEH
UniProt P28070, whole entry, looked up: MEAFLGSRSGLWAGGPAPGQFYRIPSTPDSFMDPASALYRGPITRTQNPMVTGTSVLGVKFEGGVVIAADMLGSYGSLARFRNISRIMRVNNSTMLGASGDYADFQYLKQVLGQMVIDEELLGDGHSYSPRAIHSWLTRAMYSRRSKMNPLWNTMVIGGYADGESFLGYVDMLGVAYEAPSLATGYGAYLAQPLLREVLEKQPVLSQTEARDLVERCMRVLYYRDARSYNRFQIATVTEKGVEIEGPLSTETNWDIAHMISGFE
UniProt A2A3K4: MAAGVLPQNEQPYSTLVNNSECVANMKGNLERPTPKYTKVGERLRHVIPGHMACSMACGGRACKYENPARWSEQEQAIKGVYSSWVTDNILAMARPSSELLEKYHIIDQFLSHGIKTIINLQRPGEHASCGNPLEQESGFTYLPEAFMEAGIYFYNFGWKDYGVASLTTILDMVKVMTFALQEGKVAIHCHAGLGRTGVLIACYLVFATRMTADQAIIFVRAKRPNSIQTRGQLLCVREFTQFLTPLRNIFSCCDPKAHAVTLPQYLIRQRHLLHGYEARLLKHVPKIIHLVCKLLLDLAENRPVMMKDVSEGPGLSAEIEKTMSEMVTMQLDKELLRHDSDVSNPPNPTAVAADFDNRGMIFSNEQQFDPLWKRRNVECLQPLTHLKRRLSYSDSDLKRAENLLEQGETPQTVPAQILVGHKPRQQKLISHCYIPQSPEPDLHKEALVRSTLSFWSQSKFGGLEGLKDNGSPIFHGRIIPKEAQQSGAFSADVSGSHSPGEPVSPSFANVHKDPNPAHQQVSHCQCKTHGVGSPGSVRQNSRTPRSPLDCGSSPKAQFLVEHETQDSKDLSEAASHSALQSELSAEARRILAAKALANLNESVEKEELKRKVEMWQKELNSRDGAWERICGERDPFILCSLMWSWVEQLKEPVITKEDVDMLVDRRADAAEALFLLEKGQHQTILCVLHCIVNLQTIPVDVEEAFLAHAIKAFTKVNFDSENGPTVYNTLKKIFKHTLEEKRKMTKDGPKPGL
UniProt Q96BW5: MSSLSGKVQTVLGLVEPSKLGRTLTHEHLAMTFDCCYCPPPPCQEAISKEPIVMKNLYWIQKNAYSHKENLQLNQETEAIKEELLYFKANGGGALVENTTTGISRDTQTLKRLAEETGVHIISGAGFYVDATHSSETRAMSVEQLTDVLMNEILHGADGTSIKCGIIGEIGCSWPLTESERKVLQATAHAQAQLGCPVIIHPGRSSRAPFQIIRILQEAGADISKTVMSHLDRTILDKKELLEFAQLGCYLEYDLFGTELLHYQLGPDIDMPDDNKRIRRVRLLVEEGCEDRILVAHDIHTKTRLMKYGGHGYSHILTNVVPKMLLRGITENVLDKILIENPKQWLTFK
UniProt Q9UL46, whole entry, looked up: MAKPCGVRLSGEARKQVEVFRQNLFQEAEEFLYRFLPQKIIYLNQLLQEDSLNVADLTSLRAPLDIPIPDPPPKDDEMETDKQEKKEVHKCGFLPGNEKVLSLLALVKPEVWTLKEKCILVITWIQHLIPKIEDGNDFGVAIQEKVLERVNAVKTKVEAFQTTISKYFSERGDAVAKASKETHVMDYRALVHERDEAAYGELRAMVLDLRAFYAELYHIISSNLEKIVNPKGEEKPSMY
UniProt Q9H939: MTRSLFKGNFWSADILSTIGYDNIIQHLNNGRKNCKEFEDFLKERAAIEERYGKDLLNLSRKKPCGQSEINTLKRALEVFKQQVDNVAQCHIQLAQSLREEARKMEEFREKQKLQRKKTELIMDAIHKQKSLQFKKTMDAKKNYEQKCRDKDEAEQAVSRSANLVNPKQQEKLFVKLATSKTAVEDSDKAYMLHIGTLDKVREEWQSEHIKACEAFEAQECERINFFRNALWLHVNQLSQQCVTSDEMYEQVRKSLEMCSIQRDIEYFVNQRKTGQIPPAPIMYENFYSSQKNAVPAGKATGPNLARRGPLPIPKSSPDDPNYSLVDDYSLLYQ
UniProt P55036: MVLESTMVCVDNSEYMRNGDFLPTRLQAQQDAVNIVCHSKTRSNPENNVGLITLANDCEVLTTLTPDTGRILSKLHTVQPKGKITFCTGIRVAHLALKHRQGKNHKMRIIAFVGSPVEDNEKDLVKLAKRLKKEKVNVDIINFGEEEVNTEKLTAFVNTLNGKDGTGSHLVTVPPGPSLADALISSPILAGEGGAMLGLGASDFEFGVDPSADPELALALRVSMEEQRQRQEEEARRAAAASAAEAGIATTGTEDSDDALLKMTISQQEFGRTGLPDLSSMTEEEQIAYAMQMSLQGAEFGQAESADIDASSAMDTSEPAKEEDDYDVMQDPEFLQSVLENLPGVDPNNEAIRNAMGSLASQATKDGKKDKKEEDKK
UniProt Q8WXF1: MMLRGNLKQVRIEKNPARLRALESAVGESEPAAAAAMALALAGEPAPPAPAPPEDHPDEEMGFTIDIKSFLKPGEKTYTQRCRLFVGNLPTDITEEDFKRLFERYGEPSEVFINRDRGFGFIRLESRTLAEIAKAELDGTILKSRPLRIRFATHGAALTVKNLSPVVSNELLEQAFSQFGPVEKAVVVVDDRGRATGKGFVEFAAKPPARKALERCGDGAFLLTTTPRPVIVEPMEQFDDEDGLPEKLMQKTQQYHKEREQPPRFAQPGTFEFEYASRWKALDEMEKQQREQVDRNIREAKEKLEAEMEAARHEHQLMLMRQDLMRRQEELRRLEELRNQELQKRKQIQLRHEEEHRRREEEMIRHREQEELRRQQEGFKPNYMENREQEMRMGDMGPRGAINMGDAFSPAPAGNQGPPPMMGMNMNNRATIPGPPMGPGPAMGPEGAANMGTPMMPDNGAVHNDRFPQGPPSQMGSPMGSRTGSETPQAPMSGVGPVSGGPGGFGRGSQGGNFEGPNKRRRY
UniProt Q8TBF2: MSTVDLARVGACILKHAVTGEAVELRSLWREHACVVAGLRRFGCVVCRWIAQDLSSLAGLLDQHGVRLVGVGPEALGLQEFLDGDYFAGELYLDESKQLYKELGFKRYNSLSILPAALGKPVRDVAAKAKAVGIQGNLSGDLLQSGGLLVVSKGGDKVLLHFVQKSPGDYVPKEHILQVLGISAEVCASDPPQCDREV
UniProt Q3MIT2: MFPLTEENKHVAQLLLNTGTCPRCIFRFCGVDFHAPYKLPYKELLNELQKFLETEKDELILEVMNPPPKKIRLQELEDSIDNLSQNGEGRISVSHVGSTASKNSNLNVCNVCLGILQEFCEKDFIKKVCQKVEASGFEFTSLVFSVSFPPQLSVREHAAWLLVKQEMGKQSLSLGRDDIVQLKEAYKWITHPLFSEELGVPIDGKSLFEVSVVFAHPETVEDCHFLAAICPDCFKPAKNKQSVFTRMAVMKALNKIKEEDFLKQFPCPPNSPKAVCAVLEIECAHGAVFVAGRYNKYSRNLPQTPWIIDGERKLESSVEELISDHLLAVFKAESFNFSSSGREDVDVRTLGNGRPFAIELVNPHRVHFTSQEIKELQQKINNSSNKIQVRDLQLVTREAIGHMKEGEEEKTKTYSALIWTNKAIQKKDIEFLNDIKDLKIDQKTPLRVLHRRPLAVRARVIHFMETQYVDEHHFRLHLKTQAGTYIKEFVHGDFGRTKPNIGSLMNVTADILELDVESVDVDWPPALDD
UniProt Q9UHX1: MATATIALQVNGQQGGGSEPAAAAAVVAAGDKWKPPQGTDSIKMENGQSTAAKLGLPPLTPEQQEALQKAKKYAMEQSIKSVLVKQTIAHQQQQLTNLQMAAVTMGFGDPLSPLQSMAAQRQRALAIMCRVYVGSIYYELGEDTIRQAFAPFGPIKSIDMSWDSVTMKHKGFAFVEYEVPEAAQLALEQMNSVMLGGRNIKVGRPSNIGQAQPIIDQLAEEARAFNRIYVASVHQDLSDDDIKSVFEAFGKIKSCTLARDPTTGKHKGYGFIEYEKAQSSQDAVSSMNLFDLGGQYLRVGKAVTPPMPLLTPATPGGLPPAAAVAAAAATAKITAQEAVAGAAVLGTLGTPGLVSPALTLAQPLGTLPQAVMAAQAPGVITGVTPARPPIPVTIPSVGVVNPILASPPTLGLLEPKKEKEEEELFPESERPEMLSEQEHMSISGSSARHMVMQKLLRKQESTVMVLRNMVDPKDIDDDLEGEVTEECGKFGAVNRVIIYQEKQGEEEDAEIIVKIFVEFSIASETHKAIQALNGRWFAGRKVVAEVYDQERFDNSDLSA
UniProt P28066: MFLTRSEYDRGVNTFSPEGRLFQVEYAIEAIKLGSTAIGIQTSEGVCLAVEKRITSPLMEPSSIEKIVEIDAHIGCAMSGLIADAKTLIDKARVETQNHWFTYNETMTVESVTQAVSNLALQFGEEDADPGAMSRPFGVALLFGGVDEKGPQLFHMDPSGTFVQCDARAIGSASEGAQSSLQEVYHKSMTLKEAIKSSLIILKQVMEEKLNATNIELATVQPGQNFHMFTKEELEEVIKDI

How the values were obtained:
Assay in all cases: log2 fold change, soluble protein after heating vs DMSO (PISA); higher = thermal stabilisation; K562 lysate, 10 uM; active = over 0.2 and 3.5 SD of the protein, either way, in both replicates (recomputed)
[1] = compound: NCC(=O)Nc1ccc(-n2nc(C(F)(F)F)cc2-c2ccc3c(ccc4ccccc43)c2)cc1
Outline: (§1)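 Values give the log-two fold change in thermal stability against solvent controls, from duplicates. Crude K562 extract at 1 mg/mL protein, made by dounce homogenisation in PBS pH 7.4 with 1 mM MgCl2, was treated with 10 μM compound for 30 min. After 3 min heating across 48°C-58°C, aliquots were pooled, adjusted to 0.5% NP-40 at 4°C and centrifuged at 21,000xg for 90 min. The supernatant was measured by TMTpro 16plex LC-MS/MS with channel sums equalised.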

vorinostat = compound: O=C(CCCCCCC(=O)Nc1ccccc1)NO [vorinostat]
Outline: as §1

silmitasertib = compound: O=C(O)c1ccc2c(c1)nc(Nc1cccc(Cl)c1)c1ccncc12 [silmitasertib]
Outline: as §1

[2] = compound: O=C1NC(=O)C(c2cnc3ccccn23)=C1c1cn2c3c(cc(F)cc13)CN(C(=O)N1CCCCC1)CC2
Outline: as §1

entospletinib = compound: c1cn2cc(-c3ccc4cn[nH]c4c3)nc(Nc3ccc(N4CCOCC4)cc3)c2n1 [entospletinib]
Outline: as §1

Measured: log2 fold change

PTPA isoform 2 (UniProt Q15257)
inactive: [1] 0.032 | vorinostat 0.151 | silmitasertib 0.007 | [2] -0.027 | entospletinib 0.008

PTBP3 isoform 4 (UniProt O95758)
inactive: [1] 0.025 | vorinostat -0.212 | silmitasertib -0.011 | [2] 0.012 | entospletinib 0.057

PTGR2 (UniProt Q8N8N7)
active: vorinostat 0.656
inactive: [1] -0.083 | silmitasertib -0.002 | [2] 0.11 | entospletinib -0.005

PTPRJ (UniProt Q12913)
inactive: [1] -0.014 | vorinostat 0.058 | silmitasertib -0.037 | [2] 0.016 | entospletinib -0.023

PRUNE1 (UniProt Q86TP1)
inactive: [1] 0.009 | vorinostat -0.053 | silmitasertib 0.016 | [2] -0.017 | entospletinib 0.017

PRUNE2 isoform 3 (UniProt Q8WUY3)
inactive: [1] 0.008 | vorinostat 0.054 | silmitasertib 0.004 | [2] 0.069

PSMA3 (UniProt H0YJ03)
inactive: [1] 0.374 | vorinostat -0.056 | silmitasertib -0.172 | [2] 0.005 | entospletinib 0.09

PSMA1 isoform 2 (UniProt P25786)
inactive: [1] 0.017 | vorinostat 0.122 | silmitasertib -0.014 | [2] 0.001 | entospletinib 0.024

PSMB4 (UniProt P28070)
inactive: [1] 0.003 | vorinostat 0.144 | silmitasertib 0.002 | [2] 0.015 | entospletinib 0.002

PUM1 isoform 3 (UniProt Q14671)
inactive: [1] 0.027 | vorinostat -0.192 | silmitasertib 0 | [2] -0.004 | entospletinib -0.009

PTPDC1 isoform 2 (UniProt A2A3K4)
inactive: [1] -0.527 | vorinostat 0.114 | silmitasertib 0.013 | [2] 0.001

PSMD4 (UniProt Q5VWC4)
inactive: [1] 0.049 | vorinostat 0.29 | silmitasertib -0.001 | [2] -0.005

PTER (UniProt Q96BW5)
inactive: [1] 0.027 | vorinostat 0.117 | silmitasertib 0.011 | [2] -0.046 | entospletinib 0.01

Copied from the listing (2 entries):
PSMD4 (UniProt Q5VWC4)
inactive: [1] 0.049 | vorinostat 0.29 | silmitasertib -0.001 | [2] -0.005

PTER (UniProt Q96BW5)
inactive: [1] 0.027 | vorinostat 0.117 | silmitasertib 0.011 | [2] -0.046 | entospletinib 0.01

Next part

PSME2 (UniProt Q9UL46)
inactive: [1] 0 | vorinostat 0.052 | silmitasertib -0.004 | [2] 0.004 | entospletinib -0.019

PRPH isoform 2 (UniProt P41219)
inactive: [1] 0 | vorinostat 0.112 | silmitasertib 0.001 | [2] -0.098 | entospletinib -0.052

PSTPIP2 (UniProt Q9H939)
active: vorinostat -0.312
inactive: [1] 0.046 | silmitasertib 0.04 | [2] 0.017 | entospletinib -0.005

PSMD4 (UniProt P55036)
inactive: [1] -0.002 | vorinostat 0.023 | silmitasertib 0 | [2] 0.014 | entospletinib 0.003

PTPN11 isoform 1 (UniProt Q06124)
inactive: [1] 0 | vorinostat -0.003 | silmitasertib -0.011 | [2] -0.019 | entospletinib 0.009

PSMC3 (UniProt E9PLG2)
inactive: [1] 0.047

PTDSS2 (UniProt Q9BVG9)
inactive: [1] -0.033 | vorinostat 0.101 | silmitasertib 0.015 | [2] -0.037 | entospletinib 0.002

PTPA (UniProt Q5T948)
inactive: [1] -0.012

PTBP2 isoform 2 (UniProt Q9UKA9)
inactive: [1] -0.022 | vorinostat -0.009 | silmitasertib -0.024 | [2] 0.006 | entospletinib -0.09

PSPC1 (UniProt Q8WXF1)
inactive: [1] -0.013 | vorinostat -0.074 | silmitasertib -0.003 | [2] -0.01 | entospletinib 0.01

PTMS (UniProt F5GXR3)
inactive: [1] -0.03

PRXL2B isoform 3 (UniProt Q8TBF2)
inactive: [1] 0.094 | vorinostat -0.165 | silmitasertib 0.029 | [2] 0.07 | entospletinib 0.01

PUS10 (UniProt Q3MIT2)
inactive: [1] -0.021 | vorinostat -0.122 | silmitasertib 0.025 | [2] 0.033 | entospletinib -0.011

PUF60 (UniProt Q9UHX1)
inactive: [1] -0.007 | vorinostat 0.15 | silmitasertib -0.029 | [2] 0.002 | entospletinib 0.002

PTK2B (UniProt Q14289)
inactive: [1] 0.016 | silmitasertib 0.021 | [2] -0.088 | entospletinib -0.002
active: vorinostat -0.339

PSMA5 (UniProt P28066)
inactive: [1] 0.014 | vorinostat 0.096 | silmitasertib -0.03 | [2] 0.023 | entospletinib -0.004
